For this experiment, the target named is cynomolgus PD-1-His (cynomolgus monkey). As to the kind of experiment: Octet, antibody captured on anti-human Fc (AHC) biosensors, dipped into multiple concentrations of PD-1-His. (Biolayer interferometry detects binding as a change in optical thickness at a sensor tip.)

Results are given in words; binding and its absence hold for the method and conditions named.

B1: XENP28519 (bivalent mAb based on humanized mAb A) (antibody, human IgG1, kappa, V domains shown)
VH: QVQLQESGPGLVKPSQTLSLTCTVSGHSITSDYAWNWIRQPPGKKLEWIGYISYSGYTTYNPSLKSRVTISRDTSKNQFSLKLSSVTAADTAVYFCARDLDYGPWFAYWGQGTLVTVSS
VL: DIQMTQSPSSLSASVGDRVTITCRASENIHNYLAWYQQKPGKSPKLLVYNVKTLADGVPSRFSGSGSGTDYTLTISSLQPEDFATYYCQHFWSSPWTFGGGTKVEIKR
For B1, the binding result is on record as “no binding”.

Values taken from patent US20200140512A1.
